{
  "source": "patent US6951883B2",
  "about": "“2H-1-benzopyran derivatives processes for their preparation and pharmaceutical compositions thereof” (Chiesi Farmaceutici S.p.A., priority 2001, dated 2005)",
  "system": "MCF-7",
  "experiment": "cells",
  "conditions": "Homo sapiens, MCF7, 72 h, read-out: Inhibitory Concentration IC50",
  "method": "In Vitro Study—MCF-7 Cell Proliferation\nThe tumor cells were obtained from American Type Culture Collection (ATCC HTB-22). The culture media used was Minimum Essential medium with 10% fetal bovine serum, and media were supplemented with 1% antibiotic-antimycotic. Aliquots of 100 μl of cell suspension (5×10^3/well) were placed in 96-well microtiter plates in an atmosphere of 5% CO2 at 37° C. After 24 hours, 100 μl of growth medium, 2 μl of test solution, mitomycin or vehicle (DMSO, final concentration 0.4%), was added respectively per well in duplicate for an additional 72-hours incubation. At the end of incubation, 20 μl of alamarBlue 75% reagent was added to each well for another 6-hour incubation before detection of cell viability by fluorescent intensity (excitation at 530 nm and emission at 590 nm).",
  "data": [
    {"smiles": "CC/C(=C(\\c1ccccc1)c1ccc(OCCN(C)C)cc1)c1ccccc1", "note": "[tamoxifene]", "values": [
      {"measurement": "IC50", "result": 6, "unit": "µM"}
    ]}
  ]
}
